In article PMC4778918, “Signal Transduction at the Domain Interface of Prokaryotic Pentameric Ligand-Gated Ion Channels” (PLoS Biology, 2016):

Tested on: ELIC R91A/F116A
Format: binding, Erwinia chrisanthemi
[1] = ITC, acetylcholine, Molar Ratio 0.11
[2] = ITC, acetylcholine, Molar Ratio 0.55
[3] = ITC, acetylcholine, Molar Ratio 0.99
[4] = ITC, acetylcholine, Molar Ratio 1.42
[5] = ITC, acetylcholine, Molar Ratio 1.85
[6] = ITC, acetylcholine, Molar Ratio 2.28
[7] = ITC, acetylcholine, Molar Ratio 2.69
[8] = ITC, acetylcholine, Molar Ratio 3.11
[9] = ITC, acetylcholine, Molar Ratio 3.52
[10] = ITC, acetylcholine, Molar Ratio 4.33
[11] = ITC, acetylcholine, Molar Ratio 4.73
[12] = ITC, acetylcholine, Molar Ratio 5.12
[13] = ITC, acetylcholine, Molar Ratio 5.51
[14] = ITC, acetylcholine, Molar Ratio 5.89
[15] = ITC, acetylcholine, Molar Ratio 6.27
[16] = ITC, acetylcholine, Molar Ratio 6.65
[17] = ITC, acetylcholine, Molar Ratio 7.02
[18] = ITC, acetylcholine, Molar Ratio 7.39
[19] = ITC, acetylcholine, Molar Ratio 7.84
[20] = ITC, acetylcholine, Molar Ratio 8.20
[21] = ITC, acetylcholine, Molar Ratio 8.55
[22] = ITC, acetylcholine, Molar Ratio 8.90
[23] = ITC, acetylcholine, Molar Ratio 9.24
[24] = ITC, acetylcholine, Molar Ratio 9.58
[25] = ITC, acetylcholine, Molar Ratio 9.91
[26] = ITC, acetylcholine, Molar Ratio 10.25
[27] = ITC, acetylcholine, Molar Ratio 10.57
[28] = ITC, acetylcholine, Molar Ratio 10.89
[29] = ITC, acetylcholine, Molar Ratio 11.21
[30] = ITC, acetylcholine, Molar Ratio 11.52
[31] = ITC, acetylcholine, Molar Ratio 11.83
[32] = ITC, acetylcholine, Molar Ratio 12.14
[33] = ITC, acetylcholine, Molar Ratio 12.44
[34] = ITC, acetylcholine, Molar Ratio 12.73
[35] = ITC, acetylcholine, Molar Ratio 13.02
[36] = ITC, acetylcholine, Molar Ratio 13.31
[37] = ITC, propylamine, Molar Ratio 0.44
[38] = ITC, propylamine, Molar Ratio 0.80
[39] = ITC, propylamine, Molar Ratio 1.52
[40] = ITC, propylamine, Molar Ratio 2.26
[41] = ITC, propylamine, Molar Ratio 2.63
[42] = ITC, propylamine, Molar Ratio 3.01
[43] = ITC, propylamine, Molar Ratio 3.39
[44] = ITC, propylamine, Molar Ratio 3.77
[45] = ITC, propylamine, Molar Ratio 4.16
[46] = ITC, propylamine, Molar Ratio 4.55
[47] = ITC, propylamine, Molar Ratio 4.95
[48] = ITC, propylamine, Molar Ratio 5.34
[49] = ITC, propylamine, Molar Ratio 6.15
[50] = ITC, propylamine, Molar Ratio 6.56
[51] = ITC, propylamine, Molar Ratio 6.97
[52] = ITC, propylamine, Molar Ratio 7.39
[53] = ITC, propylamine, Molar Ratio 8.33
[54] = ITC, propylamine, Molar Ratio 8.76
[55] = ITC, propylamine, Molar Ratio 9.19
[56] = ITC, propylamine, Molar Ratio 9.62
[57] = ITC, propylamine, Molar Ratio 10.06
[58] = ITC, propylamine, Molar Ratio 10.94
[59] = ITC, propylamine, Molar Ratio 11.39
[60] = ITC, propylamine, Molar Ratio 11.84
[61] = ITC, propylamine, Molar Ratio 12.30
[62] = ITC, propylamine, Molar Ratio 12.75
[63] = ITC, propylamine, Molar Ratio 13.21
[64] = ITC, propylamine, Molar Ratio 13.68
[65] = ITC, propylamine, Molar Ratio 14.15
[66] = ITC, propylamine, Molar Ratio 14.62
[67] = ITC, propylamine, Molar Ratio 15.09
[68] = ITC, propylamine, Molar Ratio 15.57
[69] = ITC, propylamine, Molar Ratio 16.05

Structure (SMILES): CC(=O)OCC[N+](C)(C)C [acetylcholine]
- kcal/mol (fit): -9.26 kcal/mol
- kcal/mol (meas.): -9.00 kcal/mol
- kcal/mol (fit) [1]: -51.59 kcal/mol
- kcal/mol (meas.) [1]: -51.95 kcal/mol
- kcal/mol (fit) [2]: -39.57 kcal/mol
- kcal/mol (meas.) [2]: -38.33 kcal/mol
- kcal/mol (fit) [3]: -31.18 kcal/mol
- kcal/mol (meas.) [3]: -31.97 kcal/mol
- kcal/mol (fit) [4]: -25.11 kcal/mol
- kcal/mol (meas.) [4]: -24.37 kcal/mol
- kcal/mol (fit) [5]: -20.59 kcal/mol
- kcal/mol (meas.) [5]: -21.37 kcal/mol
- kcal/mol (fit) [6]: -17.15 kcal/mol
- kcal/mol (meas.) [6]: -19.57 kcal/mol
- kcal/mol (fit) [7]: -14.48 kcal/mol
- kcal/mol (meas.) [7]: -13.62 kcal/mol
- kcal/mol (fit) [8]: -12.35 kcal/mol
- kcal/mol (meas.) [8]: -11.58 kcal/mol
- kcal/mol (fit) [9]: -10.65 kcal/mol
- kcal/mol (meas.) [9]: -9.76 kcal/mol
- kcal/mol (fit) [10]: -8.11 kcal/mol
- kcal/mol (meas.) [10]: -7.34 kcal/mol
- kcal/mol (fit) [11]: -7.15 kcal/mol
- kcal/mol (meas.) [11]: -8.22 kcal/mol
- kcal/mol (fit) [12]: -6.34 kcal/mol
- kcal/mol (meas.) [12]: -6.86 kcal/mol
- kcal/mol (fit) [13]: -5.66 kcal/mol
- kcal/mol (meas.) [13]: -6.37 kcal/mol
- kcal/mol (fit) [14]: -5.07 kcal/mol
- kcal/mol (meas.) [14]: -4.30 kcal/mol
- kcal/mol (fit) [15]: -4.56 kcal/mol
- kcal/mol (meas.) [15]: -3.95 kcal/mol
- kcal/mol (fit) [16]: -4.12 kcal/mol
- kcal/mol (meas.) [16]: -3.80 kcal/mol
- kcal/mol (fit) [17]: -3.74 kcal/mol
- kcal/mol (meas.) [17]: -3.52 kcal/mol
- kcal/mol (fit) [18]: -3.40 kcal/mol
- kcal/mol (meas.) [18]: -3.27 kcal/mol
- kcal/mol (fit) [19]: -3.03 kcal/mol
- kcal/mol (meas.) [19]: -3.07 kcal/mol
- kcal/mol (fit) [20]: -2.78 kcal/mol
- kcal/mol (meas.) [20]: -2.61 kcal/mol
- kcal/mol (fit) [21]: -2.55 kcal/mol
- kcal/mol (meas.) [21]: -2.48 kcal/mol
- kcal/mol (fit) [22]: -2.34 kcal/mol
- kcal/mol (meas.) [22]: -2.53 kcal/mol
- kcal/mol (fit) [23]: -2.16 kcal/mol
- kcal/mol (meas.) [23]: -2.32 kcal/mol
- kcal/mol (fit) [24]: -1.99 kcal/mol
- kcal/mol (meas.) [24]: -2.43 kcal/mol
- kcal/mol (fit) [25]: -1.84 kcal/mol
- kcal/mol (meas.) [25]: -1.89 kcal/mol
- kcal/mol (fit) [26]: -1.70 kcal/mol
- kcal/mol (meas.) [26]: -2.94 kcal/mol
- kcal/mol (fit) [27]: -1.58 kcal/mol
- kcal/mol (meas.) [27]: -1.59 kcal/mol
- kcal/mol (fit) [28]: -1.46 kcal/mol
- kcal/mol (meas.) [28]: -1.01 kcal/mol
- kcal/mol (fit) [29]: -1.36 kcal/mol
- kcal/mol (meas.) [29]: -1.30 kcal/mol
- kcal/mol (fit) [30]: -1.26 kcal/mol
- kcal/mol (meas.) [30]: -1.16 kcal/mol
- kcal/mol (fit) [31]: -1.17 kcal/mol
- kcal/mol (meas.) [31]: -1.01 kcal/mol
- kcal/mol (fit) [32]: -1.09 kcal/mol
- kcal/mol (meas.) [32]: -1.06 kcal/mol
- kcal/mol (fit) [33]: -1.01 kcal/mol
- kcal/mol (meas.) [33]: -0.72 kcal/mol
- kcal/mol (fit) [34]: -0.94 kcal/mol
- kcal/mol (meas.) [34]: -0.57 kcal/mol
- kcal/mol (fit) [35]: -0.88 kcal/mol
- kcal/mol (meas.) [35]: -0.43 kcal/mol
- kcal/mol (fit) [36]: -0.82 kcal/mol
- kcal/mol (meas.) [36]: -1.03 kcal/mol

Structure (SMILES): CCCN [propylamine]
- kcal/mol (fit) [37]: 1000.43 kcal/mol
- kcal/mol (meas.) [37]: 1105.90 kcal/mol
- kcal/mol (fit) [38]: 791.05 kcal/mol
- kcal/mol (meas.) [38]: 717.48 kcal/mol
- kcal/mol (fit) [39]: 457.90 kcal/mol
- kcal/mol (meas.) [39]: 421.63 kcal/mol
- kcal/mol (fit) [40]: 265.02 kcal/mol
- kcal/mol (meas.) [40]: 260.36 kcal/mol
- kcal/mol (fit) [41]: 205.92 kcal/mol
- kcal/mol (meas.) [41]: 217.55 kcal/mol
- kcal/mol (fit) [42]: 162.73 kcal/mol
- kcal/mol (meas.) [42]: 157.06 kcal/mol
- kcal/mol (fit) [43]: 130.74 kcal/mol
- kcal/mol (meas.) [43]: 179.77 kcal/mol
- kcal/mol (fit) [44]: 106.66 kcal/mol
- kcal/mol (meas.) [44]: 125.91 kcal/mol
- kcal/mol (fit) [45]: 88.23 kcal/mol
- kcal/mol (meas.) [45]: 111.41 kcal/mol
- kcal/mol (fit) [46]: 73.89 kcal/mol
- kcal/mol (meas.) [46]: 95.33 kcal/mol
- kcal/mol (fit) [47]: 62.57 kcal/mol
- kcal/mol (meas.) [47]: 70.17 kcal/mol
- kcal/mol (fit) [48]: 53.50 kcal/mol
- kcal/mol (meas.) [48]: 80.01 kcal/mol
- kcal/mol (fit) [49]: 40.10 kcal/mol
- kcal/mol (meas.) [49]: 51.72 kcal/mol
- kcal/mol (fit) [50]: 35.08 kcal/mol
- kcal/mol (meas.) [50]: 60.19 kcal/mol
- kcal/mol (fit) [51]: 30.88 kcal/mol
- kcal/mol (meas.) [51]: 37.21 kcal/mol
- kcal/mol (fit) [52]: 27.33 kcal/mol
- kcal/mol (meas.) [52]: 32.66 kcal/mol
- kcal/mol (fit) [53]: 21.10 kcal/mol
- kcal/mol (meas.) [53]: 25.36 kcal/mol
- kcal/mol (fit) [54]: 18.92 kcal/mol
- kcal/mol (meas.) [54]: 18.69 kcal/mol
- kcal/mol (fit) [55]: 17.03 kcal/mol
- kcal/mol (meas.) [55]: 11.66 kcal/mol
- kcal/mol (fit) [56]: 15.36 kcal/mol
- kcal/mol (meas.) [56]: 15.49 kcal/mol
- kcal/mol (fit) [57]: 13.89 kcal/mol
- kcal/mol (meas.) [57]: 9.31 kcal/mol
- kcal/mol (fit) [58]: 11.43 kcal/mol
- kcal/mol (meas.) [58]: 11.84 kcal/mol
- kcal/mol (fit) [59]: 10.39 kcal/mol
- kcal/mol (meas.) [59]: -0.19 kcal/mol
- kcal/mol (fit) [60]: 9.45 kcal/mol
- kcal/mol (meas.) [60]: 7.58 kcal/mol
- kcal/mol (fit) [61]: 8.60 kcal/mol
- kcal/mol (meas.) [61]: 8.19 kcal/mol
- kcal/mol (fit) [62]: 7.84 kcal/mol
- kcal/mol (meas.) [62]: -7.21 kcal/mol
- kcal/mol (fit) [63]: 7.14 kcal/mol
- kcal/mol (meas.) [63]: -4.30 kcal/mol
- kcal/mol (fit) [64]: 6.50 kcal/mol
- kcal/mol (meas.) [64]: 0.39 kcal/mol
- kcal/mol (fit) [65]: 5.91 kcal/mol
- kcal/mol (meas.) [65]: -4.07 kcal/mol
- kcal/mol (fit) [66]: 5.37 kcal/mol
- kcal/mol (meas.) [66]: -6.05 kcal/mol
- kcal/mol (fit) [67]: 4.87 kcal/mol
- kcal/mol (meas.) [67]: -1.35 kcal/mol
- kcal/mol (fit) [68]: 4.41 kcal/mol
- kcal/mol (meas.) [68]: -2.02 kcal/mol
- kcal/mol (fit) [69]: 3.98 kcal/mol
- kcal/mol (meas.) [69]: -1.01 kcal/mol

Read-outs that look alike come from different tables or passages of the source.
